Data published in patent US7511151B2 (priority 2002, dated 2009).
Some of these results come from one statement about several compounds together.

Tests used:
Plasmopara viticola = conditions: in vivo
Phytophthora infestans = format: in vivo; conditions: 200 ppm, tomato leaf disks, preventive, assessed four days after inoculation

CC#CC(C)(C)NC(=O)C(OCC)Oc1cncc(Cl)c1 (centres unmarked) [1 (1), 2-(5-chloropyridyl-3-oxy)-2-(ethoxy)-N-(2-methylpent-3-yn-2-yl) acetamide]
control of disease (Plasmopara viticola): > 60% | control of disease (Phytophthora infestans): > 60%
